Literature values as cited in patent US20240358639A1, “NANOPARTICLES FOR CANCER TREATMENT” (Immix Biopharma, Inc., priority 2021, published 2024).

solubility in organic solvents and alkalis (ethanol, alkalis, ketones, acetic acid and chloroform): soluble
solubility in water (water): insoluble
Compound: COc1cc(/C=C/C(=O)CC(=O)/C=C/c2ccc(O)c(OC)c2)ccc1O [Curcumin, (E,E)-1,7-bis (4 hydroxy-3-methoxyphenyl)-1,6-heptadiene-3,5,-dione]
